The supplement of paper PMC12067093, “Discovery and optimisation of a covalent ligand for TRIM25 and its application to targeted protein ubiquitination” (Chemical Science, 2025)
The list shows a part of the results.
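Further: competitive profiling in live THP-1 cells: cysteine peptides tagged with an iodoacetamide desthiobiotin (IA-DTB) probe, intensity after compound treatment relative to DMSO-treated cells.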

Sequences of proteins named here, by UniProt entry; tags and fusion partners are left off. A change or cut given only in a name is not applied to a line headed by its entry.
UniProt P13501: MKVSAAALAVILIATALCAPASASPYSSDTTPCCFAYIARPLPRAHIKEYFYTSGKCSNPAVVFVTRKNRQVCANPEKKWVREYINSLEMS
UniProt Q9Y2V2: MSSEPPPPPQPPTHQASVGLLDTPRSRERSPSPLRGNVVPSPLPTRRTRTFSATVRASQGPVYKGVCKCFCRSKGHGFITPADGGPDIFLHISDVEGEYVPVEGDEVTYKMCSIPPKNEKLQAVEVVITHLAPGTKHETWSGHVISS
UniProt Q3V6T2: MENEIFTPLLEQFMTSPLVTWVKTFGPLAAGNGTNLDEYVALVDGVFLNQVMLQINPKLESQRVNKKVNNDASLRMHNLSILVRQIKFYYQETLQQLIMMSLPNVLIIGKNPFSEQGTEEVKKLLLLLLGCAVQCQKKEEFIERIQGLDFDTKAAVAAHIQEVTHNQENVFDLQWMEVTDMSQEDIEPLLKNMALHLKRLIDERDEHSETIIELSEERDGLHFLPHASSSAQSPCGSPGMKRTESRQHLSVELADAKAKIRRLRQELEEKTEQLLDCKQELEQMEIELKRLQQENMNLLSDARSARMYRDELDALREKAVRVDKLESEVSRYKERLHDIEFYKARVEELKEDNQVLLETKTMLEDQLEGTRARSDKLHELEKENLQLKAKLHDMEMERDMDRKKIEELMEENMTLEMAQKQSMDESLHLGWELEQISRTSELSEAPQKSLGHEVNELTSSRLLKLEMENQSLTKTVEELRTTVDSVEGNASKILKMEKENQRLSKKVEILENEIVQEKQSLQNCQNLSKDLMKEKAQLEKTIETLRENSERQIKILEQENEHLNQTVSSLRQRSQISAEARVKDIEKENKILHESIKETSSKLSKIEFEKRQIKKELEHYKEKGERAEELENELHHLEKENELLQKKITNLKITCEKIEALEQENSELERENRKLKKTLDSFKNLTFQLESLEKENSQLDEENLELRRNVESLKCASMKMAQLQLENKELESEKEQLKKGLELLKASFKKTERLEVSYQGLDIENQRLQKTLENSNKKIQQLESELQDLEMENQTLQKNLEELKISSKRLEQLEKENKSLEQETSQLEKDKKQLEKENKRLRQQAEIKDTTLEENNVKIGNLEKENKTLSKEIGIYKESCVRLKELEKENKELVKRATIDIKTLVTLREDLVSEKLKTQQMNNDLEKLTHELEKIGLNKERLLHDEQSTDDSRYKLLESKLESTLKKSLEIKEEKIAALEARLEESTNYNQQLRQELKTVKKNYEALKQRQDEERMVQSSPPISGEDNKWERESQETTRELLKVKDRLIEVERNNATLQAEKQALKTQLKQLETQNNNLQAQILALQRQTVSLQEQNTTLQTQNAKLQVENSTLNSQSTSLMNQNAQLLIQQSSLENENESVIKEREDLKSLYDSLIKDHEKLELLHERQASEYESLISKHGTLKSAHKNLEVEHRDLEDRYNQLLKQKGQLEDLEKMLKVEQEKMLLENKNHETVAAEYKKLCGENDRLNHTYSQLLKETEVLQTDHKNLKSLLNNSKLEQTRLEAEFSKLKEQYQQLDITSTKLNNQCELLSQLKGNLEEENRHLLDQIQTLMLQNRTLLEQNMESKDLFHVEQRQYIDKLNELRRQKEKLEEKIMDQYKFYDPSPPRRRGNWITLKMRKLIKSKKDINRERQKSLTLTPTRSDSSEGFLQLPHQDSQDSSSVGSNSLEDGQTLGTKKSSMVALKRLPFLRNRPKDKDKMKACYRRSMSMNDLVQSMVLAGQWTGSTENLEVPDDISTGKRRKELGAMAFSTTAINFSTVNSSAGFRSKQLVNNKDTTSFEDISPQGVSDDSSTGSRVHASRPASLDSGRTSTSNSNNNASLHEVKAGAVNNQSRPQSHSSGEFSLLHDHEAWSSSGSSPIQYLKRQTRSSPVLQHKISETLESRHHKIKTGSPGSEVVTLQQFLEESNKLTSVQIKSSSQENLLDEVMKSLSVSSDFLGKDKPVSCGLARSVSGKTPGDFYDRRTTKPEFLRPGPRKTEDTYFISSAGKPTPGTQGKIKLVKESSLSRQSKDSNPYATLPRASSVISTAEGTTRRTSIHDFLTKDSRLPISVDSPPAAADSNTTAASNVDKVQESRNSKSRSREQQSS
UniProt Q01518, whole entry, looked up: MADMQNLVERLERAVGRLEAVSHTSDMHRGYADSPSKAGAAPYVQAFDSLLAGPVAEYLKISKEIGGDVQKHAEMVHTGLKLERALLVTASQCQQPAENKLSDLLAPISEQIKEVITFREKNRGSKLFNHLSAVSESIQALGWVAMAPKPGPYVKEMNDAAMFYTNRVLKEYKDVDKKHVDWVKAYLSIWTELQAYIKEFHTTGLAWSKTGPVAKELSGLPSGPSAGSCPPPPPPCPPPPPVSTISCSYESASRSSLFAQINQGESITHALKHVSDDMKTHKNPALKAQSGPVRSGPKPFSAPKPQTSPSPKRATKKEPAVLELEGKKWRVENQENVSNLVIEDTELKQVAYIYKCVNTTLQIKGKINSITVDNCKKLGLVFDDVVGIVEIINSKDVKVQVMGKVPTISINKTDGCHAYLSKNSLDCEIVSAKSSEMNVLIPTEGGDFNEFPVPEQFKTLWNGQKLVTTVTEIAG
UniProt Q92851: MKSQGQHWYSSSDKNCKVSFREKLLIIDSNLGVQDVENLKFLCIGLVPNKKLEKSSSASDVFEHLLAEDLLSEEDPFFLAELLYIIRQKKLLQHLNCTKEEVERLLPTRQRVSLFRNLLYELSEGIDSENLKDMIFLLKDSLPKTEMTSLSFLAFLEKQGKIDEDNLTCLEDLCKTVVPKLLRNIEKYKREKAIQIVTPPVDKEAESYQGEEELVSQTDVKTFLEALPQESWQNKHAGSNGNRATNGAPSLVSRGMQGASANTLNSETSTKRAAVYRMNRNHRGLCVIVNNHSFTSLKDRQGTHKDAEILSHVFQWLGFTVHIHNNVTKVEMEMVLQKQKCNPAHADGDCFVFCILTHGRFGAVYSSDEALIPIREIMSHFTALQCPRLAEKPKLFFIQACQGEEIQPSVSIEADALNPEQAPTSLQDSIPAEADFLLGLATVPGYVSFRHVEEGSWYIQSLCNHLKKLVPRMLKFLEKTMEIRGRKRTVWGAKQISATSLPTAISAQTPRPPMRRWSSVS
UniProt P42575: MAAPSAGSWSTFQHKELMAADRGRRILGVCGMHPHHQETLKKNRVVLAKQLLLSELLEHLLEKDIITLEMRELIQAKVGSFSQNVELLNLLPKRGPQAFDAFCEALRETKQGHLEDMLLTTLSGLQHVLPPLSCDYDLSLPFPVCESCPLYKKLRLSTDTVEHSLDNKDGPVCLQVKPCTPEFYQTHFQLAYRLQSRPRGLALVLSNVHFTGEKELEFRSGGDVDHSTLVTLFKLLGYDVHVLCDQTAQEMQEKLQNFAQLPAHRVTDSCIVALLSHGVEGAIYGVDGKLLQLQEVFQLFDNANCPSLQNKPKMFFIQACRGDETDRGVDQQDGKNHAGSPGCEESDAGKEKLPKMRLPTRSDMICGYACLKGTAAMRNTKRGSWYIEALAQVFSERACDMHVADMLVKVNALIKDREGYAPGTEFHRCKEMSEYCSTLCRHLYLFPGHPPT
UniProt P29466: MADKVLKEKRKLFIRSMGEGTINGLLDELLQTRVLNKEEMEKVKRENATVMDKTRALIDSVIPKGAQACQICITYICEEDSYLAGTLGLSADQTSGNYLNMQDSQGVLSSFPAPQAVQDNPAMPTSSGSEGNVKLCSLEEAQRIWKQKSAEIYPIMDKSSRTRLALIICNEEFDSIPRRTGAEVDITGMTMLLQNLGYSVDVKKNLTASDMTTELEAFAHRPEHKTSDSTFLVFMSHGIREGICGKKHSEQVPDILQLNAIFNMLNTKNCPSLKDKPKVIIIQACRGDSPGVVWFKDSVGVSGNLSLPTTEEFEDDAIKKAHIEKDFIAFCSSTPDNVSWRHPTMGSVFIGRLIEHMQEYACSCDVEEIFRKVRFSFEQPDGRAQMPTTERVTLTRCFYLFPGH
UniProt P07384: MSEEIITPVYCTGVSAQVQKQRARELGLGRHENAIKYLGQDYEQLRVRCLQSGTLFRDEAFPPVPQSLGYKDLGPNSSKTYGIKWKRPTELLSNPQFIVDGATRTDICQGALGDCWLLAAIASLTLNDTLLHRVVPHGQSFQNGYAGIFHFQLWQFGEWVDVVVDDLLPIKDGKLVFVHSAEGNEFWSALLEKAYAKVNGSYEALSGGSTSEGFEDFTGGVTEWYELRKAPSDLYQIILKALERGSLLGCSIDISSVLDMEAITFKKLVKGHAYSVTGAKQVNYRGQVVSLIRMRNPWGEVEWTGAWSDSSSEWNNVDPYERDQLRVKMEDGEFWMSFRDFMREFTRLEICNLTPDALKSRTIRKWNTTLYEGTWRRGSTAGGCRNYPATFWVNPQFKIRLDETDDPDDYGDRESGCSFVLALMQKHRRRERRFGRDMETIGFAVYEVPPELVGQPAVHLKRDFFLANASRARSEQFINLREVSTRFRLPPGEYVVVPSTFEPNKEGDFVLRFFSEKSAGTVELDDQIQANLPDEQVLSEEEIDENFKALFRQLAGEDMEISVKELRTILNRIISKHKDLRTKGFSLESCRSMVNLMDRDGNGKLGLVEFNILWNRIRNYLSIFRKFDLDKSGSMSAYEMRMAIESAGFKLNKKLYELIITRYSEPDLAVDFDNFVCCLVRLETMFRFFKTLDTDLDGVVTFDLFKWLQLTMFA
UniProt P49662: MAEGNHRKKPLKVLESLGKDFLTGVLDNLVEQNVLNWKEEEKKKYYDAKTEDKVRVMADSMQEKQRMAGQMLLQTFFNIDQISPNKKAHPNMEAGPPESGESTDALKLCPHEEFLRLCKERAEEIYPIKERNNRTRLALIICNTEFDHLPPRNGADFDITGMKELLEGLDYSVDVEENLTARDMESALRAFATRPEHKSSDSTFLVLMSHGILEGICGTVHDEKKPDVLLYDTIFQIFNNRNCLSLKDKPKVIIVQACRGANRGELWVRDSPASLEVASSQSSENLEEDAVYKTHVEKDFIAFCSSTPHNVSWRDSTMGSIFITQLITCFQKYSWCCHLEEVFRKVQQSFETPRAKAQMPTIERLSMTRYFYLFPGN
UniProt Q14790: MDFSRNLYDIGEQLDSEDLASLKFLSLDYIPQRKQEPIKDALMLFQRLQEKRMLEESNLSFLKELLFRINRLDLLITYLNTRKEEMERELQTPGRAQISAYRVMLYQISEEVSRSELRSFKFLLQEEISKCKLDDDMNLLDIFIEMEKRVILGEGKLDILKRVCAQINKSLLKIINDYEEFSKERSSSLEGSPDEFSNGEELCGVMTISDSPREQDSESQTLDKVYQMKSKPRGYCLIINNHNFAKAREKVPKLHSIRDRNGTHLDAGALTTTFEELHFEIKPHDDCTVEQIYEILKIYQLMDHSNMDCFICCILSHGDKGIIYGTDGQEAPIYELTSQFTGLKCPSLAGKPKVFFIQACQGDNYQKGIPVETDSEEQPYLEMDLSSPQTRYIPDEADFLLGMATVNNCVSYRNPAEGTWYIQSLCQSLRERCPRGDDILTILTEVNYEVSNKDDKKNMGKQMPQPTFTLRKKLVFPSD
UniProt Q9BX69: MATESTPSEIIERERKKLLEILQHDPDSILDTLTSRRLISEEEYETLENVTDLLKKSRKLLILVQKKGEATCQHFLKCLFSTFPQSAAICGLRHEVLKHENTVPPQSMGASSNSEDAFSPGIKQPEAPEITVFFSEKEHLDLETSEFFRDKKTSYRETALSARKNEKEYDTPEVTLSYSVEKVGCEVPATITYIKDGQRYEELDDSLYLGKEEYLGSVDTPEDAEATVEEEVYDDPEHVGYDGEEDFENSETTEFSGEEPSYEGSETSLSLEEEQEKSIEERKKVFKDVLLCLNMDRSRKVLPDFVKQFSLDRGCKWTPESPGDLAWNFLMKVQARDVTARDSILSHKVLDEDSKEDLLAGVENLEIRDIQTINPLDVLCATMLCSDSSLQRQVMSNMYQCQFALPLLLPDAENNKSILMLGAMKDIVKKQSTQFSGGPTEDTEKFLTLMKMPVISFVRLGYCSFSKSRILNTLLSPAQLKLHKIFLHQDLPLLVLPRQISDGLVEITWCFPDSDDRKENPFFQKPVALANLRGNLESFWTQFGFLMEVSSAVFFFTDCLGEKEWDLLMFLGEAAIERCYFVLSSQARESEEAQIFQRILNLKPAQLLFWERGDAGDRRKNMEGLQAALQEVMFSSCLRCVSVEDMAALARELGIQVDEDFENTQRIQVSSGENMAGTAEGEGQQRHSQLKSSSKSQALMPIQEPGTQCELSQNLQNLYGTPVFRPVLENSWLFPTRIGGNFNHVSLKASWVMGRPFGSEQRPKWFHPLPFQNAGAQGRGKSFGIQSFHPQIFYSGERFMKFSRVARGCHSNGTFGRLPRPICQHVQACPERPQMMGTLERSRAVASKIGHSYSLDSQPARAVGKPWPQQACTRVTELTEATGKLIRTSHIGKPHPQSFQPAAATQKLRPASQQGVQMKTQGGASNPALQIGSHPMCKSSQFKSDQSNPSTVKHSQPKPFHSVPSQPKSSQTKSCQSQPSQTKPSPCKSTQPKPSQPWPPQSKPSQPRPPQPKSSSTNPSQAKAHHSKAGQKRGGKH

Each target was assayed with Cc1cc(ccc1-c1ccccc1)C(=O)N1CCCN(CC1)C(=O)CCl [compound 10] (assay: probe-labelled cysteine peptide fold change vs DMSO (competition) (log2 fold change); higher = less target engagement (more negative = stronger competition)). Settings: 10 µM; THP-1; incubation time: 4 h.
For “CAPZA2_P47755_111_EATDPRPCEVENAVESWR (UniProt P47755)”, the “probe-labelled cysteine peptide fold change” value was -0.035. With “CCDC88B_A6NC98_1222_ESNQQLDLSACR (UniProt A6NC98)” the “probe-labelled cysteine peptide fold change” value was -0.343. “CASP8AP2_Q9UKL3_270_DLSTGCGDGEPR (UniProt Q9UKL3)” was tested, and the “probe-labelled cysteine peptide fold change” value was -0.38. For “CCL5_P13501_73_QVCANPEK (UniProt P13501)”, the “probe-labelled cysteine peptide fold change” value was -0.704. With “CAPNS1_P04632_190_SGTICSSELPGAFEAAGFHLNEHLYNMIIRR (UniProt P04632)” the “probe-labelled cysteine peptide fold change” value was 0.0699. In the case of “CCT3_P49368_366_IGDEYFTFITDCKDPK (UniProt P49368)”, the “probe-labelled cysteine peptide fold change” value is reported as -0.00752. In the case of “CCNL2_Q96S94_190_ELGFCVHVK (UniProt Q96S94)”, the “probe-labelled cysteine peptide fold change” value is reported as -0.0835. With “CARHSP1_Q9Y2V2_112_MCSIPPK (UniProt Q9Y2V2)” the “probe-labelled cysteine peptide fold change” value was -0.0121. With “CCDC88A_Q3V6T2_524_QSLQNCQNLSK (UniProt Q3V6T2)” the “probe-labelled cysteine peptide fold change” value was -0.00565. With “CAP1_Q01518_93_ALLVTASQCQQPAENK (UniProt Q01518)” the “probe-labelled cysteine peptide fold change” value was -0.00677. “CASP10_Q92851_386_EIMSHFTALQCPR (UniProt Q92851)” was tested, and the “probe-labelled cysteine peptide fold change” value was 0.0137. In the case of “CCDC97_Q96F63_218_TPTHQPPKPGSPGRPACPLSNLLLQSYEER (UniProt Q96F63)”, the “probe-labelled cysteine peptide fold change” value is reported as -0.272. For “CASP2_P42575_399_ACDMHVADMLVK (UniProt P42575)”, the “probe-labelled cysteine peptide fold change” value was -0.119. “CCDC47_Q96A33_209_LNQENEHIYNLWCSGR (UniProt Q96A33)” was tested, and the “probe-labelled cysteine peptide fold change” value was 0.138. In the case of “CASP1_P29466_364_LIEHMQEYACSCDVEEIFR (UniProt P29466)”, the “probe-labelled cysteine peptide fold change” value is reported as -0.0222. With “CCDC117_Q8IWD4_81_REEEEDDDCPVR (UniProt Q8IWD4)” the “probe-labelled cysteine peptide fold change” value was -0.0553. For “CAPN1_P07384_417_IRLDETDDPDDYGDRESGCSFVLALMQK (UniProt P07384)”, the “probe-labelled cysteine peptide fold change” value was -0.0999. With “CAPN2_P17655_498_DGDFCIR (UniProt P17655)” the “probe-labelled cysteine peptide fold change” value was 0.239. “CBX1_P83916_156_CPQVVISFYEER (UniProt P83916)” was tested, and the “probe-labelled cysteine peptide fold change” value was 0.121. “CAPRIN1_Q14444_226_PVCGTTYK (UniProt Q14444)” was tested, and the “probe-labelled cysteine peptide fold change” value was 0.0847. With “CASP4_P49662_336+337_YSWCCHLEEVFR (UniProt P49662)” the “probe-labelled cysteine peptide fold change” value was -0.236. With “CASP10_Q92851_350_CNPAHADGDCFVFCILTHGR (UniProt Q92851)” the “probe-labelled cysteine peptide fold change” value was 0.0154. For “CASP8_Q14790-2_188_GEELCGVMTISDSPR (UniProt Q14790)”, the “probe-labelled cysteine peptide fold change” value was -0.0348. With “CAPN1_P07384_677_YSEPDLAVDFDNFVCCLVR (UniProt P07384)” the “probe-labelled cysteine peptide fold change” value was 0.308. “CASP2_P42575_270_VTDSCIVALLSHGVEGAIYGVDGK (UniProt P42575)” was tested, and the “probe-labelled cysteine peptide fold change” value was 0.0725. “CASP10_Q92851_341+350_CNPAHADGDCFVFCILTHGR (UniProt Q92851)” was tested, and the “probe-labelled cysteine peptide fold change” value was -0.106. In the case of “CASP1_P29466_136_LCSLEEAQR (UniProt P29466)”, the “probe-labelled cysteine peptide fold change” value is reported as 0.0436. “CASP2_P42575_30_ILGVCGMHPHHQETLKK (UniProt P42575)” was tested, and the “probe-labelled cysteine peptide fold change” value was -0.432. “CARD6_Q9BX69_292_DVLLCLNMDR (UniProt Q9BX69)” was tested, and the “probe-labelled cysteine peptide fold change” value was -0.0196. In the case of “CCT5_P48643_253_IAILTCPFEPPKPK (UniProt P48643)”, the “probe-labelled cysteine peptide fold change” value is reported as -0.0429. “CASP2_P42575_320_MFFIQACR (UniProt P42575)” was tested, and the “probe-labelled cysteine peptide fold change” value was -0.311. In the case of “CBR3_O75828_227_ILVNACCPGPVK (UniProt O75828)”, the “probe-labelled cysteine peptide fold change” value is reported as -0.284. “CBL_P22681_572_RPLPCTPGDCPSR (UniProt P22681)” was tested, and the “probe-labelled cysteine peptide fold change” value was -0.054. With “CCDC106_Q9BWC9_184_DADGVLCR (UniProt Q9BWC9)” the “probe-labelled cysteine peptide fold change” value was -0.208. For “CCT2_P78371_535_VPDHHPC (UniProt P78371)”, the “probe-labelled cysteine peptide fold change” value was 0.162. In the case of “CASP7_P55210_246_GSWFVQALCSILEEHGK (UniProt P55210)”, the “probe-labelled cysteine peptide fold change” value is reported as 0.137. For “CARD9_Q9H257_402_ADELQLQVFQCEAQLLAVEGR (UniProt Q9H257)”, the “probe-labelled cysteine peptide fold change” value was 0.18.
